Measurements published in publication PMC11844281.
Results are given in words; binding and its absence hold for the method and conditions named. In cells and extracts the contact can be indirect. Some results given as binding are weak or reduced against the parent protein; the word gives no strength.

Amino acid sequences for entries named in this document (tags omitted).
UniProt P35222: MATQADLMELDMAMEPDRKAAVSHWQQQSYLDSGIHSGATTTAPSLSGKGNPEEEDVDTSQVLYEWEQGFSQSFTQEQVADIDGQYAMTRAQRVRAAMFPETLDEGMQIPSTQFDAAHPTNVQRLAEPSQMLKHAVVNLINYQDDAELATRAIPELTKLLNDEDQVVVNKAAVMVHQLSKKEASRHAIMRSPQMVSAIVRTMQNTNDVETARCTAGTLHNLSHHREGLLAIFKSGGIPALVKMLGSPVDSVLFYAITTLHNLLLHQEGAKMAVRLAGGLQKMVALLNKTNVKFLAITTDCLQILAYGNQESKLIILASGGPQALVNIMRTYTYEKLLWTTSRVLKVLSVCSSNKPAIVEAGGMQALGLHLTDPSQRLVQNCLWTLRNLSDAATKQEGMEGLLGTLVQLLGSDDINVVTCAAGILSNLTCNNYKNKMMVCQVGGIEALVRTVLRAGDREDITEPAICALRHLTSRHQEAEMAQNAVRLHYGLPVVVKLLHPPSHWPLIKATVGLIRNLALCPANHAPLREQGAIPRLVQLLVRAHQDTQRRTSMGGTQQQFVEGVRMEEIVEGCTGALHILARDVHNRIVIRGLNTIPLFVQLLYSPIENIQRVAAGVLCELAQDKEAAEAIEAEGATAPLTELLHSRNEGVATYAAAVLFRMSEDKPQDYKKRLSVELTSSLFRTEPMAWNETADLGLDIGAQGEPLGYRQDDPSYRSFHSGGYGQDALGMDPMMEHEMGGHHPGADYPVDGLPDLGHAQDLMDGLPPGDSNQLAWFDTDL
UniProt Q969H0: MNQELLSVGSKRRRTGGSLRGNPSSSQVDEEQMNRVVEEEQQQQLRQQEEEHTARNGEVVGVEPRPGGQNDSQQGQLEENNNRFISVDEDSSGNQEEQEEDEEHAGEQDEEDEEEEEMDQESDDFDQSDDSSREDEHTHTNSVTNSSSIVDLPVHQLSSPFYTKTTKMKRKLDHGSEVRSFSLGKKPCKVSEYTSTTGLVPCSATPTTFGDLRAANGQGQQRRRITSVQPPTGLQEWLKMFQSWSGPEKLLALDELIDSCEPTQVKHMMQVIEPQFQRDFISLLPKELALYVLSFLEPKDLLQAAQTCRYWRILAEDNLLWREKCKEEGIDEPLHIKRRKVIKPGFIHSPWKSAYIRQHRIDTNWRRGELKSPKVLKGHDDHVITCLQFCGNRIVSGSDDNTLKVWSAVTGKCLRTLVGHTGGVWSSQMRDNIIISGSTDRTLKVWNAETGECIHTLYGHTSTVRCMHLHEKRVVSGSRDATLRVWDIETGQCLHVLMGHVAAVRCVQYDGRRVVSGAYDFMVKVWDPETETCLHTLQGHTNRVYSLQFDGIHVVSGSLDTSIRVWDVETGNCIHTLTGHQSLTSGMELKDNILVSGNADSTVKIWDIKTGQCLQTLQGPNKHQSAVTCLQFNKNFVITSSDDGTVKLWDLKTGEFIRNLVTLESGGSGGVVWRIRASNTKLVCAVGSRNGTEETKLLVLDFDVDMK

Target: T1, Enkurin (ENKUR) (human) (UniProt Q8TC29)
T1 sequence: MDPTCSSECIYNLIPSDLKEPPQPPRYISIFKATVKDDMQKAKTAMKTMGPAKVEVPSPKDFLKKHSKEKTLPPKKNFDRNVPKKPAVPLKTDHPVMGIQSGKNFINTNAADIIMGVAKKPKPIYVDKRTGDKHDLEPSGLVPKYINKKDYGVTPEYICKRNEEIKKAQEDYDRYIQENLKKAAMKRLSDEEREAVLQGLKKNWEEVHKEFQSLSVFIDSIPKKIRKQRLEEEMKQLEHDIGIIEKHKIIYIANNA
Assay: co-IP; RL95-2 and HEC-1-B cell lysates; Pierce Co-IP kit; antibodies against ENKUR, CTNNB1 or FBXW7, IgG as negative control; 12 h at 4°C; western blotting

In the case of “Catenin beta-1 (CTNNB1, β-catenin) (from UniProt P35222 1-781)”, the binding is reported as “binds”.
In the case of “F-box and WD repeat domain containing 7 (FBXW7) (from UniProt Q969H0 1-707)”, the binding is reported as “binds”.
